Our source for the binding values is PMC7321188.

Protein sequences, listed by entry. Tags and fused reporters are not part of them. Lines headed by an entry give the natural chain unless they say otherwise; changes in a name come on top.
UniProt Q99962: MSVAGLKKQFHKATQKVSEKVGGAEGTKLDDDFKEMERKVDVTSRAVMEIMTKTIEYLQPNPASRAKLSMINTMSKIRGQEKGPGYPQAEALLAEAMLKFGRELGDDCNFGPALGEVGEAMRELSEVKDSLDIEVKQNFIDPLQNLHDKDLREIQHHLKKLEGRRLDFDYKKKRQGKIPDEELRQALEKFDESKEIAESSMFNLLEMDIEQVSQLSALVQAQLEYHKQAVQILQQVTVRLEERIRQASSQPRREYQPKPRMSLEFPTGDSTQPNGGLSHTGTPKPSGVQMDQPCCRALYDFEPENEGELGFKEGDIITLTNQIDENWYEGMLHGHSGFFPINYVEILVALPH
UniProt Q5S007: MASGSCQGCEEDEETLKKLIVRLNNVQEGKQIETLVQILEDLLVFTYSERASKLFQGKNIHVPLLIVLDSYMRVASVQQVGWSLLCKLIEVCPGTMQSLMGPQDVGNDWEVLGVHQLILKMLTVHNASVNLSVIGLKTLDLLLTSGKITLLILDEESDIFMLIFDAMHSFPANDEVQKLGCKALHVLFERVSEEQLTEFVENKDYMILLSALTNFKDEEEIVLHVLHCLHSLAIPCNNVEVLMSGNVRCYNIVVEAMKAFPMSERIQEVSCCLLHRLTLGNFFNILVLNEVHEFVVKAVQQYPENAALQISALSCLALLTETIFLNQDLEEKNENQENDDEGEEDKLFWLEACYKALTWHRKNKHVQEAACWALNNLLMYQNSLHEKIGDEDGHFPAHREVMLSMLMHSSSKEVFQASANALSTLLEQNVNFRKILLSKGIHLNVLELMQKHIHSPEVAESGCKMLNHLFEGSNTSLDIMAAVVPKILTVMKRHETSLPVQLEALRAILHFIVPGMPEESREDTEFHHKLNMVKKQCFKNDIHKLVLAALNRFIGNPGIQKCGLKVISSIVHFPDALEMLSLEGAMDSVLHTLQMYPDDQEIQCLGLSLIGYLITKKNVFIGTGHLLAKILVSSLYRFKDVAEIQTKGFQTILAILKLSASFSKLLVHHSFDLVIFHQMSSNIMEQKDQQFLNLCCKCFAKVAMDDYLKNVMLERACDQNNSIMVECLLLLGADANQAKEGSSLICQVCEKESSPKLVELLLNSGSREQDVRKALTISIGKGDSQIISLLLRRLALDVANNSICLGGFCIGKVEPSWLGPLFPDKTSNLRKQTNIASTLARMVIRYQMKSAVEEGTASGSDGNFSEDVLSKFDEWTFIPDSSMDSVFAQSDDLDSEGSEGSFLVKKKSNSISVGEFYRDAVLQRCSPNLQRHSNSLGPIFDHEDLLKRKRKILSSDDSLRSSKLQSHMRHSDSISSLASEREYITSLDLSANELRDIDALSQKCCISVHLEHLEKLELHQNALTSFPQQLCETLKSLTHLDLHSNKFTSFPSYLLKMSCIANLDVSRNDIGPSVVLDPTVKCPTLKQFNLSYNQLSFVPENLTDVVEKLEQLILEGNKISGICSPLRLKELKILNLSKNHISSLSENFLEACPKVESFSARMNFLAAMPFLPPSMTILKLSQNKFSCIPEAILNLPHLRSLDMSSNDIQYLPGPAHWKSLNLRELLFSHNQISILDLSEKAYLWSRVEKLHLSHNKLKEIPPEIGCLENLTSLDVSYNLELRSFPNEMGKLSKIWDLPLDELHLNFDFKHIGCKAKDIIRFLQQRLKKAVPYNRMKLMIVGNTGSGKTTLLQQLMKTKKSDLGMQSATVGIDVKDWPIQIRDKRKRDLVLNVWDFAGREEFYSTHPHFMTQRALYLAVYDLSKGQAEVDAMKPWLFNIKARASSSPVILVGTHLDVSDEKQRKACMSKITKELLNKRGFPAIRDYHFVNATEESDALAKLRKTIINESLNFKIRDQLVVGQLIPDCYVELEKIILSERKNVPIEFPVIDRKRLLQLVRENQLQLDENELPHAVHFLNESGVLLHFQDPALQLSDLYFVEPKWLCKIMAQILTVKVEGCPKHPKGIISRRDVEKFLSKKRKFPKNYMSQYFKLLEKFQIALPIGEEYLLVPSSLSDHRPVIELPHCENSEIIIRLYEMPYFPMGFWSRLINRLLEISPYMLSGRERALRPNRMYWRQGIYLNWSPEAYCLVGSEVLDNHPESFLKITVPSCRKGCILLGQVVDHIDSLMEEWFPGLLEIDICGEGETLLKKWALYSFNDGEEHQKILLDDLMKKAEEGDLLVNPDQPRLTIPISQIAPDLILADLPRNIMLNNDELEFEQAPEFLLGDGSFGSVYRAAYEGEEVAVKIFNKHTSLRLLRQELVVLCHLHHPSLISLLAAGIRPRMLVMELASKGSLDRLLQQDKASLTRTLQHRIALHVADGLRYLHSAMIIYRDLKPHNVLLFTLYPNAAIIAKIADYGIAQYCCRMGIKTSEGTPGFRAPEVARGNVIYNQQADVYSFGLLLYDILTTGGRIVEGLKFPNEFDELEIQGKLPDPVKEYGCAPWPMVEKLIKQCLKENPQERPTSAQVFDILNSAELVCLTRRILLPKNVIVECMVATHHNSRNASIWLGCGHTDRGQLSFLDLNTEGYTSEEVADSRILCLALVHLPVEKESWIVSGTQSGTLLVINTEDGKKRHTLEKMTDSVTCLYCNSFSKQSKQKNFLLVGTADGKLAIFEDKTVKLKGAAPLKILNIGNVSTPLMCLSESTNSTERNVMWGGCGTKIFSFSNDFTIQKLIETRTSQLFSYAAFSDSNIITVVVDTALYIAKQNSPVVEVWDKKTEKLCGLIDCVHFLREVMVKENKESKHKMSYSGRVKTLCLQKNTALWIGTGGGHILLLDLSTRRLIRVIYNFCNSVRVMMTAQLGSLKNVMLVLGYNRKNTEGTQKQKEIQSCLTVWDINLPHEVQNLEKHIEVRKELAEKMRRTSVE

Results are given in words; binding and its absence hold for the method and conditions named. For some of these results: In cells and extracts the contact can be indirect. Some binding calls cover weakened binding; strength is not graded here.

Assay [1] concerns the target Endophilin A1-mCherry (UniProt Q99962). In words: cross-correlation raster image correlation spectroscopy (ccRICS); two-photon excitation at 1000 nm, live differentiated SH-SY5Y cells co-expressing LRRK2-GFP and EndoA1-mCherry, 37 °C.
Assay [2] shares this target. In words: FRET or BRET; FLIM/FRET with phasor analysis, GFP donor lifetime, two-photon excitation at 920 nm, live differentiated SH-SY5Y cells co-expressing LRRK2-GFP and EndoA1-mCherry. On the technique in general: In BRET a luciferase serves as donor, and the signal depends on an acceptor being close.

With “G2019S LRRK2-GFP (Parkinson's disease mutant of Leucine-Rich Repeat Kinase 2, GFP fusion) (from UniProt Q5S007 1-2527)”, the binding result in the assay with Endophilin A1-mCherry [1] and with Endophilin A1-mCherry [2] was “binds” each time.

As for “WT LRRK2-GFP (Leucine-Rich Repeat Kinase 2, wild type, GFP fusion) (from UniProt Q5S007 1-2527)”, the binding entry with Endophilin A1-mCherry [1] and with Endophilin A1-mCherry [2] was “binds” each time.
